According to PubChem BioAssay AID540276 (National Center for Advancing Translational Sciences (NCATS), 2011):
Out of some 300,000 compounds screened, about 5,400 (1.8%) were called active. Inconclusive means that the source gave no clear call. Such entries were picked first, then a sample of the others. Calls come from the whole dose curve; tested in HEK293 cells. A potency beside an inconclusive call is a rough fit, not a confirmed value.

Test: qHTS for inhibitors of binding or entry into cells for Marburg Virus
Details: Marburg virus pseudotyped entry inhibition, cell reporter; activity change, negative = inhibition: at 37.8 µM (top of the series) unless noted
% is set by controls: 0 for no effect and ±100 for the full control effect; potency is the fitted concentration of half-maximal effect.

Structure (SMILES) | Potency | activity change, negative = inhibition
CCCCCCOC(=O)C(C#N)c1nc2ccccc2nc1N1CCCCC1 (centres undefined) | inconclusive: 18.3 µM [inhibitor, single point] | 
C=CCn1c(Cc2c(C)[nH]c3ccccc23)nnc1SCC(=O)NCc1ccc(F)cc1 | inconclusive: 35.5 µM [inhibitor, single point] | 
CCCN(CCC)Cc1c(C(=O)N/N=C/c2c[nH]c3ccccc23)nnn1-c1nonc1N | inconclusive: 17.8 µM [inhibitor, single point] | 
CC(C)(C)c1cc(C(=O)N2CCc3ccccc32)ccn1 | inconclusive: 1.46 µM [inhibitor, partial curve, poor fit] | 
CCOc1ccc(N2CC(c3nc4ccccc4n3CCCOc3ccc(OC)cc3)CC2=O)cc1 (centres undefined) |  | inactive: -19.9% [at 46.1 µM]
O=C(c1ccccc1F)N(Cc1ccc(F)cc1)C1CCS(=O)(=O)C1 (centres undefined) |  | inactive: -7.6%
CCOC(=O)c1c(NC(NC(=O)C(C)C)C(Cl)(Cl)Cl)sc2c1CCC2 (centres undefined) | active: 11.2 µM | 
O=c1[nH]c(/C=C/c2cccc(Br)c2)nc2ccccc12 | inconclusive: 6.31 µM [inhibitor, single point] | 
Cc1c(C(=O)NCCSCc2cccc(C(F)(F)F)c2)cnn1-c1ccc(Cl)cc1 | inconclusive: 35.5 µM [inhibitor, single point] | 
Cc1ccc(-c2[nH]c(=O)n3ccncc23)s1 | inconclusive: 0.251 µM [activator, full curve, poor fit] | 
CN(Cc1ccco1)C(=O)c1c[nH]c2ccc(S(=O)(=O)Nc3ccc4c(c3)OCCO4)cc2c1=O | inactive | 
CC(C)C(NS(=O)(=O)c1ccc2c(c1)OCCO2)C(=O)NCCc1ccccn1 (centres undefined) | inconclusive: 8.91 µM [activator, partial curve, poor fit] | 
CCC(C)NC(=O)C1(N2C(=O)c3ccccc3C2=O)CCCC1 (centres undefined) |  | inactive: 7.12%
COc1ccccc1C(=O)C1CCCN(C(=O)CCC(=O)c2ccccc2)C1 (centres undefined) |  | inactive: -22.7% [at 46.1 µM]
O=C(Nc1ccc2c(c1)OCO2)c1ccc(Cl)nc1 |  | inactive: 19.5%
COC(=O)c1cc(Cl)c(NC(=O)/C=C/c2ccc(Cl)cc2Cl)cc1OC | inconclusive: 1.3 µM [inhibitor, partial curve, poor fit] | 
CC(C)c1ccc(NC(=O)c2cc3c(=O)n(C)c4ccccc4c3n2C)cc1 | inconclusive: 15.8 µM [inhibitor, partial curve, poor fit] | 
O=S(=O)(c1ccc(F)cc1)N1CCN(CCOc2ccccc2)CC1 | inconclusive: 35.5 µM [inhibitor, single point] | 
Cn1c(SCC(=O)Nc2ccc3[nH]c(=O)[nH]c3c2)nnc1-c1ccccc1 | inconclusive: 35.5 µM [activator, single point] | 

Some of the entries so far, with tabs:
Structure (SMILES)	Potency	activity change, negative = inhibition
O=S(=O)(c1ccc(F)cc1)N1CCN(CCOc2ccccc2)CC1	inconclusive: 35.5 µM [inhibitor, single point]	
Cn1c(SCC(=O)Nc2ccc3[nH]c(=O)[nH]c3c2)nnc1-c1ccccc1	inconclusive: 35.5 µM [activator, single point]	
